Screen size: about 330,000 compounds; about 1,000 (0.3%) were called active. The inconclusive results got no clear call from the source; some entries with a clear call stand among them for comparison. Calls come from the whole dose curve; as a rule, active = well fitted inhibition curve with a large enough effect; inconclusive = small, poorly fitted or top-dose-only effect; inactive = no such curve, though single readings can be large or run the other way; tested in mouse RAW 264.7 cells. Where the call is inconclusive, the potency comes from a doubtful curve fit.
Experiment: qHTS for Inhibitors of Cell Surface uPA Generation; note: nearly all actives have a fitted effect of over 55% in size
Settings: cell surface uPA generation assay; series mostly up to 38.3 µM
Method in brief: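 RAW 264.7 cells, 4000/well, given compound (1:5 dilutions, up to 38.3 uM final) and incubated 24 h at 37 C. Blocked uPA-dependent LF entry keeps ATP high; ATPlite luminescence read, 5 s exposure.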
Potency is the fitted concentration of half-maximal effect.

Question: With `Cc1c(C#N)c(NC(=O)CCl)n(Cc2ccc(F)cc2)c1C` as the molecule, how does the Potency read?
Answer: The Potency was inconclusive: 5.01 µM [inhibitor, partial curve, poor fit].

Question: Which Potency does the source give for `CCOc1ccc(N(CC(=O)Nc2cccc(F)c2)S(=O)(=O)c2c(C)noc2C)cc1` here?
Answer: Its Potency is inconclusive: 14.1 µM [inhibitor, single point].

Question: With `Cc1ccc(Nc2nnc(SCC(=O)NCCN3C(=O)CSC3=O)s2)cc1C` as the molecule, how does the Potency read?
Answer: Its Potency is active: 5.01 µM.

Question: Which Potency does the source give for `Cc1ccc(CNC(=O)c2cc3c(=O)n4ccccc4nc3n(CC3CCCO3)c2=N)cc1` (stereo not drawn) here?
Answer: Its Potency is “inactive”.

Question: For `CCOC(=O)Cc1[nH]nc2c1C(C1C=CCCC1)C(C#N)=C(N)O2` (stereo not drawn), which Potency is on record?
Answer: The Potency was “inactive”.

Question: With `COc1ccc(N2C(=O)/C(=C/c3cccs3)NC2=S)cc1` as the molecule, how does the Potency read?
Answer: Its Potency is “inactive”.

Question: With `O=C(CSc1nnc(Cc2ccccc2)o1)Nc1ccc(N2CCOCC2)cc1` as the molecule, how does the Potency read?
Answer: The Potency was inconclusive: 12.6 µM [inhibitor, single point].

Question: For `Cc1cc(NC2CCCCC2)nc(NCc2ccccc2)n1`, which Potency is on record?
Answer: The Potency was inconclusive: 7.94 µM [inhibitor, partial curve, poor fit].

Question: With `CCCn1nc(C(=O)Nc2nc(-c3ccccn3)cs2)c2ccccc2c1=O` as the molecule, how does the Potency read?
Answer: The Potency was inconclusive: 10 µM [inhibitor, single point].

Question: For `Cc1cccc(-c2ccc3ncnc(NCc4cccs4)c3c2)c1`, which Potency is on record?
Answer: The Potency was inconclusive: 28.2 µM [inhibitor, single point].

Question: For `Cc1cc(C)c(CN2CCN(C(=O)Cn3cnc(C(=O)Nc4ccc(C)c(C)c4)n3)CC2)c(C)c1`, which Potency is on record?
Answer: Its Potency is “inactive”.

Question: For `O=C(c1ccncc1)N1N=C(c2ccc(Cl)cc2)CC1c1ccccc1O` (stereo not drawn), which Potency is on record?
Answer: The Potency was “inactive”.

Question: With `CCC1CCCCN1S(=O)(=O)c1ccc(NC(=O)C2CCN(C(=O)c3ccco3)CC2)cc1` (stereo not drawn) as the molecule, how does the Potency read?
Answer: Its Potency is “inactive”.

Question: With `COc1ccccc1NC(=O)c1ccc2c(c1)C(=O)N(Cc1ccco1)C2=O` as the molecule, how does the Potency read?
Answer: Its Potency is inconclusive: 8.91 µM [inhibitor, partial curve, poor fit].

Question: With `Cc1ccc(C(=O)N(CCc2ccccc2)Cc2ccccc2)cc1S(=O)(=O)N1CCCCC1` as the molecule, how does the Potency read?
Answer: The Potency was “inactive”.

Question: For `Cc1noc(/C=C/c2cccs2)c1S(=O)(=O)N1CCC(C(=O)NCCCN2CCC(C)CC2)CC1`, which Potency is on record?
Answer: Its Potency is inconclusive: 6.31 µM [inhibitor, single point].

Question: Which Potency does the source give for `O=Cc1cccc(Oc2ccc([N+](=O)[O-])cc2[N+](=O)[O-])c1` here?
Answer: The Potency was inconclusive: 0.0141 µM [inhibitor, full curve, poor fit].

Question: With `COc1ccccc1C(=O)Nc1nc2ccccc2s1` as the molecule, how does the Potency read?
Answer: The Potency was inconclusive: 0.316 µM [inhibitor, full curve, poor fit].

Question: For `COc1ccc2c(C)c(CC(=O)N3CCN(C(=O)C4COc5ccccc5O4)CC3)c(=O)oc2c1` (stereo not drawn), which Potency is on record?
Answer: Its Potency is inconclusive: 8.91 µM [inhibitor, single point].

Question: Which Potency does the source give for `O=C(CSc1nnnn1-c1ccc(O)cc1)c1ccc(F)cc1` here?
Answer: Its Potency is inconclusive: 10 µM [inhibitor, single point].

Question: For `O=C(NCCc1ccccc1)c1n[nH]c2ccccc12`, which Potency is on record?
Answer: The Potency was “inactive”.

Question: With `O=C(c1ccccc1CCc1ccccc1)N1CCCC1` as the molecule, how does the Potency read?
Answer: Its Potency is inconclusive: 10 µM [inhibitor, partial curve, poor fit].

Question: With `CC(Cc1c[nH]c2ccccc12)NC(=O)OCCCl` (stereo not drawn) as the molecule, how does the Potency read?
Answer: Its Potency is “inactive”.

Question: With `COc1ccc(-c2cc(=O)c3cc(OC)ccc3[nH]2)cc1` as the molecule, how does the Potency read?
Answer: The Potency was inconclusive: 1.12 µM [inhibitor, full curve].

Question: For `O=C(CCc1ccccc1)NNC(=O)c1ccccn1`, which Potency is on record?
Answer: The Potency was inconclusive: 11.2 µM [inhibitor, single point].

Question: Which Potency does the source give for `Cc1cccc(/C=C/C(=O)c2ccc([N+](=O)[O-])o2)c1` here?
Answer: Its Potency is active: 7.08 µM.

Question: For `Cc1cc(C)cc(NC(=O)c2cccc(NC(=O)c3ccco3)c2)c1`, which Potency is on record?
Answer: The Potency was “inactive”.

Question: For `CC(C)c1nc2ccc(NC(=O)C34CC5CC(CC(C5)C3)C4)cc2[nH]1`, which Potency is on record?
Answer: Its Potency is inconclusive: 2.51 µM [inhibitor, full curve].

Question: For `COc1ccc(C(CNC(=O)c2cccc(S(=O)(=O)Nc3ccc(F)cc3)c2)N2CCCC2)cc1` (stereo not drawn), which Potency is on record?
Answer: The Potency was inconclusive: 17.8 µM [inhibitor, partial curve, poor fit].

Question: For `COc1ccc(S(=O)(=O)N2CCCC(C(=O)N3CCN(c4ccccc4)CC3)C2)cc1Cl` (stereo not drawn), which Potency is on record?
Answer: The Potency was inconclusive: 11.2 µM [inhibitor, single point].

Question: For `CCC(C)c1ccc(S(=O)(=O)N2CCN(C(=O)c3ccc(Cl)c(S(=O)(=O)N4CCOCC4)c3)CC2)cc1` (stereo not drawn), which Potency is on record?
Answer: Its Potency is inconclusive: 12.6 µM [inhibitor, single point].

Question: Which Potency does the source give for `Cc1ccc(-n2[nH]c(C)c(C=Nc3ccc(C)cn3)c2=O)cc1` here?
Answer: Its Potency is inconclusive: 5.01 µM [inhibitor, partial curve, poor fit].

Question: With `O=C(O)CCCCCCC1C(=O)NC(=O)N1CCC(O)C1CCCCC1` (stereo not drawn) as the molecule, how does the Potency read?
Answer: The Potency was inconclusive: 0.398 µM [inhibitor, partial curve, poor fit].

Question: For `O=C(/C=C/c1ccc2ccccc2n1)N1CCN(S(=O)(=O)c2ccc(F)cc2)CC1`, which Potency is on record?
Answer: Its Potency is inconclusive: 10 µM [inhibitor, partial curve, poor fit].

Question: For `NC(=O)CC(NC(=O)Cc1ccc(Br)cc1)c1ccc(NC2CCCCCCC2)c([N+](=O)[O-])c1` (stereo not drawn), which Potency is on record?
Answer: Its Potency is inconclusive: 2.82 µM [inhibitor, single point].

Question: For `COc1ccc(Nc2nc(OC)nc(OC)n2)cc1`, which Potency is on record?
Answer: The Potency was inconclusive: 3.98 µM [inhibitor, partial curve, poor fit].

Question: Which Potency does the source give for `NC(=O)CC(NC(=O)Cc1ccc(Br)cc1)c1ccc(NCc2ccc(F)c(F)c2)c([N+](=O)[O-])c1` (stereo not drawn) here?
Answer: Its Potency is inconclusive: 12.6 µM [inhibitor, single point].

Question: Which Potency does the source give for `CCC(=O)Nc1ccc2c(c1)nc1n2CCN(CCOC)C1` here?
Answer: Its Potency is “inactive”.

Question: Which Potency does the source give for `O=C(OCc1nc2ccccc2s1)c1ccc(Br)o1` here?
Answer: The Potency was “inactive”.

Question: For `CCOc1cc(/C=N/NC(=O)NN(C)c2ncc(C(F)(F)F)cc2Cl)ccc1O`, which Potency is on record?
Answer: The Potency was “inactive”.

Question: Which Potency does the source give for `CCCCOc1ccc(CSC2=NCCN2)cc1[N+](=O)[O-]` here?
Answer: The Potency was active: 6.31 µM.

Question: With `COc1ccc(Nc2nc(-c3ccccc3F)nc3ccccc23)cc1OC` as the molecule, how does the Potency read?
Answer: Its Potency is inconclusive: 12.6 µM [inhibitor, single point].

From PubChem BioAssay AID540303 (National Center for Advancing Translational Sciences (NCATS), 2011)
